# Laboratory results reported in patent US20170014477A1, “FREE RAPTOR REDUCES AGING- AND OBESITY-INDUCED FATTY LIVER” (The Trustees of Columbia University in the City of New York, priority 2015, published 2017).
# For at least one compound, name, drawing or mass did not settle the structure.
# Legend:
# SREBP1c = details: primary rat hepatocytes and liver; cited from earlier work
# PHLPP2 [1] = test: Western blot of PHLPP2 levels in primary hepatocytes / Hepa1c1c7 cells; format: cell-based, mouse; details: short- or long-term treatment, Rapamycin (20 nM), Torin1 (250 nM)
# Description: The GFP, Raptor and PHLPP1/2 adenoviruses have been described (Miyamoto et al., 2010; Pajvani et al., 2013). The HA-Flag-PHLPP2 adenovirus was constructed by inserting a Flag sequence into HA-PHLPP2 vector (Addgene #22403, courtesy of Alexandra Newton) and adenoviruses encoding HA-Flag-PHLPP2 generated by Welgen, Inc. (Worcester, Mass.). Mouse shPhlpp1 or 2 target sequences were selected among three candidate sequences, respectively and adenoviruses encoding shPhlpp1 or 2 generated by Welgen, Inc. For in vivo studies, we injected […] or 2.5×10^8 purified viral particles per g body weight; we performed metabolic analysis on days 3-5 and euthanized the mice at day 8 or 10 after injection. Infection with adenovirus in primary hepatocytes or Hepa1c1c7 cells was performed at 2.5, 5, or 10 multiplicity of infection (MOI).
# We isolated and cultured primary mouse hepatocytes as previously described (Kim et al., 2012). For inhibitor experiments, we treated hepatocytes with 20 nM rapamycin (Cell Signaling), 250 nM Torin1, or vehicle for either 1 h or 24 h.
# Tissues and cells were lysed in 0.3% CHAPS lysis buffer (Kim et al., 2002) unless otherwise stated, and whole cell lysates obtained by centrifugation. […]
# PHLPP2 [2] = test: PHLPP2 phosphorylation (Phos-tag mobility shift; IP and phospho-PKA substrate immunoblot) in hepatocytes; format: cell-based, mouse
# PHLPP2-KCTD17 = test: Association of PHLPP2 with KCTD17; format: cell-based; details: forskolin alone
SMILES,insulin-dependent SREBP1c activation (SREBP1c),decrease of basal or Raptor-increased PHLPP2 levels (PHLPP2 [1]),PHLPP2 phosphorylation (PHLPP2 [2]; Phos-tag-based mobility shift assay),"PKA-mediated phosphorylation of WT PHLPP2 (PHLPP2 [2]; primary hepatocytes, IP, phosphorylated PKA substrate antibody, not S1119A/S1210A mutant)",association of endogenous PHLPP2 with KCTD17 (PHLPP2-KCTD17)
CO[C@H]1C[C@@H]2CC[C@@H](C)[C@@](O)(O2)C(=O)C(=O)N2CCCC[C@H]2C(=O)O[C@H]([C@H](C)C[C@@H]2CC[C@@H](O)[C@H](OC)C2)CC(=O)[C@H](C)/C=C(\C)[C@@H](O)[C@@H](OC)C(=O)[C@H](C)C[C@H](C)/C=C/C=C/C=C/1C [rapamycin],blocks,neither,–,–,–
C=C[C@@]1(C)CC(=O)[C@]2(O)[C@@]3(C)[C@@H](O)CCC(C)(C)[C@@H]3[C@H](O)[C@H](OC(C)=O)[C@@]2(C)O1 [forskolin],–,–,increased,robustly increased,significantly enhanced
